# Measurements as given in the supplement of paper PMC10060354, “Discovery of a small molecule ligand of FRS2 that inhibits invasion and tumor growth” (Cellular Oncology, 2022).
# By UniProt entry, the sequences of proteins in these tests, tags left out. Where a name states a change or a piece, a line headed by the entry shows the natural chain unless it says otherwise.
# UniProt B7ZAQ6: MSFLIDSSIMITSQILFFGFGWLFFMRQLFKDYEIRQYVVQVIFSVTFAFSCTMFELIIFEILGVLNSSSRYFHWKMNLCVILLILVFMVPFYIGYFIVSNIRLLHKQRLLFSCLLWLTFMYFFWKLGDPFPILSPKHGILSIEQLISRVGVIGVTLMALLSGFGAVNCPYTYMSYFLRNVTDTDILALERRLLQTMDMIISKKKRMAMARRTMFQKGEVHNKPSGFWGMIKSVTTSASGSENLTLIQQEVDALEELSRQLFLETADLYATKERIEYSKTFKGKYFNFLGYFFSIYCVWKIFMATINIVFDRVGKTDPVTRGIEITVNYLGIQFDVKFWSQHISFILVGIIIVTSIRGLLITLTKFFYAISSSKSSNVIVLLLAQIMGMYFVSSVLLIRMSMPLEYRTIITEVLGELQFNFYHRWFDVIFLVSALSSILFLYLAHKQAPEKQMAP
# UniProt P00519, whole entry: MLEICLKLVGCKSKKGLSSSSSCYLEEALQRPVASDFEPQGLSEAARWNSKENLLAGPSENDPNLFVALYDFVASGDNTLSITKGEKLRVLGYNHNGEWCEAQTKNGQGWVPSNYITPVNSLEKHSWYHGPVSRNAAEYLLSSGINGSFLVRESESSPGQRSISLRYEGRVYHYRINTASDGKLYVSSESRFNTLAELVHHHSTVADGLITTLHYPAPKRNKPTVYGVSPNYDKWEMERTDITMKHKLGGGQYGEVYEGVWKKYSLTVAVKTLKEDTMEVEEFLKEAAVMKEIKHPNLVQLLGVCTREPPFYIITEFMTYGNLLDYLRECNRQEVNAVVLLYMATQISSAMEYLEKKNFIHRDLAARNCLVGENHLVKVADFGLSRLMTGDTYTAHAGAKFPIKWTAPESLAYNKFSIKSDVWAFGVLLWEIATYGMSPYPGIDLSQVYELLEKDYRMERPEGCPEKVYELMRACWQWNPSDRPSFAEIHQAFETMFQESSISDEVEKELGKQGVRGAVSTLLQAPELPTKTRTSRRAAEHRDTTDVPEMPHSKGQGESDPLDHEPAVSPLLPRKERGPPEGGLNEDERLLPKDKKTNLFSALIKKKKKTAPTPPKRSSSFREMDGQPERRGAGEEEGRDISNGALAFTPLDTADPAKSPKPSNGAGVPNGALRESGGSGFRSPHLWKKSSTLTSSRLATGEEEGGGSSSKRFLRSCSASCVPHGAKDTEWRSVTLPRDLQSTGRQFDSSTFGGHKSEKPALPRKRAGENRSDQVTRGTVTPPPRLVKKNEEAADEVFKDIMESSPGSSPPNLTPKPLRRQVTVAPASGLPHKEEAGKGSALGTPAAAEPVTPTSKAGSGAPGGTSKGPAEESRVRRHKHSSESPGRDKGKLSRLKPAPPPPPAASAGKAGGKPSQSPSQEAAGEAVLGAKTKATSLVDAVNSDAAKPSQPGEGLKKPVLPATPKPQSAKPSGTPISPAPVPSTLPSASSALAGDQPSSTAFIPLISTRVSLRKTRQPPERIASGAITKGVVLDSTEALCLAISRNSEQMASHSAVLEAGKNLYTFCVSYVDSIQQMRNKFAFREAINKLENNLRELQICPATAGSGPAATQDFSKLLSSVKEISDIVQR
# UniProt Q5JUR7: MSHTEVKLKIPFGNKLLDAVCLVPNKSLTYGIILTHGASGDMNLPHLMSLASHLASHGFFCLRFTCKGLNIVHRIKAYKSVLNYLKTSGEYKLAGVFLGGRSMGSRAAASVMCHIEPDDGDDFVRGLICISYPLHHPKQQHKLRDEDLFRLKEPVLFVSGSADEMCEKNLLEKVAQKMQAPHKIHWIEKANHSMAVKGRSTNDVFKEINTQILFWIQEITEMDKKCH
# UniProt Q659C4: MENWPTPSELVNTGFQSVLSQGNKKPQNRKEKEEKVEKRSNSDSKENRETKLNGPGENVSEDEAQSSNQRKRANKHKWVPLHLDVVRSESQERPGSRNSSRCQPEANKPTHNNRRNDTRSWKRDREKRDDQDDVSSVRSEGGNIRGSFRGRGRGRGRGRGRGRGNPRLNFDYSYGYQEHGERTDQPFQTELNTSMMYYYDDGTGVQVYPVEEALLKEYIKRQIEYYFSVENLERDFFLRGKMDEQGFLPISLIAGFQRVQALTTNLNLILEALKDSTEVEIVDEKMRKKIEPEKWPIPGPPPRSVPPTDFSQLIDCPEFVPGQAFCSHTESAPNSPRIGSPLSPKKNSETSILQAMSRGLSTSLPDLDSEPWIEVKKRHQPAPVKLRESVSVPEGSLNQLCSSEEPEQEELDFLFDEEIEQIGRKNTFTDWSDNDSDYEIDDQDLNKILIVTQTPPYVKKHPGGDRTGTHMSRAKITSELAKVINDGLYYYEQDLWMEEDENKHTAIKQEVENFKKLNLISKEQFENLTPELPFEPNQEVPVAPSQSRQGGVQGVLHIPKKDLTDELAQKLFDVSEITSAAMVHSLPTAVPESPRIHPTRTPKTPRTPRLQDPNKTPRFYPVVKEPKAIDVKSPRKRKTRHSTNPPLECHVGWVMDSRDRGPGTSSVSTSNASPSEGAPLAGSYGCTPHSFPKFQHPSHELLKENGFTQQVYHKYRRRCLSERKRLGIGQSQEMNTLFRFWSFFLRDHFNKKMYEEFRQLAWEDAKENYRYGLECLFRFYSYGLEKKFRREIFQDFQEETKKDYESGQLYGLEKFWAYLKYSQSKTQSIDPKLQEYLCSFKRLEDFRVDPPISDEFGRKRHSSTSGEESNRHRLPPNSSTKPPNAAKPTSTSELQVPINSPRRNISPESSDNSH
# UniProt P29144: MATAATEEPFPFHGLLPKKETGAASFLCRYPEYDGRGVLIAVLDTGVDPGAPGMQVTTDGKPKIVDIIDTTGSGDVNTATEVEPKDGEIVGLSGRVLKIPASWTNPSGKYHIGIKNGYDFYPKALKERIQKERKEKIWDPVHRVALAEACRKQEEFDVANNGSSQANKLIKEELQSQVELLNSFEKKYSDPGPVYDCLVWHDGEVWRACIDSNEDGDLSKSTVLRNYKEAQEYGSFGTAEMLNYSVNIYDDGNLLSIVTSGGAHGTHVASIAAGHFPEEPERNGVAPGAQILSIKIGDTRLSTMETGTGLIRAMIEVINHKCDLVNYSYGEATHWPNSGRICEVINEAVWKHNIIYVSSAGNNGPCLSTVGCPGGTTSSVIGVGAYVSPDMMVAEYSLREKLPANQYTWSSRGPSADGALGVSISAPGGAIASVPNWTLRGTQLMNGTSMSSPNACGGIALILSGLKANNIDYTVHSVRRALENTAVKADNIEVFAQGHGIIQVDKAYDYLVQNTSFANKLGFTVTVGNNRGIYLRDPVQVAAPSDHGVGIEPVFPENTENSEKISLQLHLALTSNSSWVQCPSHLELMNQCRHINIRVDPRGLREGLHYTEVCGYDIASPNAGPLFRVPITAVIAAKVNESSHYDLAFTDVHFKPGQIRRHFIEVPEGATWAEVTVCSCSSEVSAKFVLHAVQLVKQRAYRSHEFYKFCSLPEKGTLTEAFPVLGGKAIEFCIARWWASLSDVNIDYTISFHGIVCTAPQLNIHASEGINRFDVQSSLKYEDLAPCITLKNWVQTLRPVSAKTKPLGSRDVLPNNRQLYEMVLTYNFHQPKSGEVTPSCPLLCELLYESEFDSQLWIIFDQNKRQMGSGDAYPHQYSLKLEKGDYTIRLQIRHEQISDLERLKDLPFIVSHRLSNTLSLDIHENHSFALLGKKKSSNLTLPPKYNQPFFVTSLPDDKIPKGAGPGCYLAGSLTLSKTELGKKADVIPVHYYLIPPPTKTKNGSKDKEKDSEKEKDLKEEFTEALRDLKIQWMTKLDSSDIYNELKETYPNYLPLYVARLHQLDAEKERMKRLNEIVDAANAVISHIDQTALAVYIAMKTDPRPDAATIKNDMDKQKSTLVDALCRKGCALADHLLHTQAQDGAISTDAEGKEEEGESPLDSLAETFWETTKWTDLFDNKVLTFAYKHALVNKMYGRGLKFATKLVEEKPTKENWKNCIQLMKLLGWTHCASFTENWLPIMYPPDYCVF
# UniProt A6NDB9: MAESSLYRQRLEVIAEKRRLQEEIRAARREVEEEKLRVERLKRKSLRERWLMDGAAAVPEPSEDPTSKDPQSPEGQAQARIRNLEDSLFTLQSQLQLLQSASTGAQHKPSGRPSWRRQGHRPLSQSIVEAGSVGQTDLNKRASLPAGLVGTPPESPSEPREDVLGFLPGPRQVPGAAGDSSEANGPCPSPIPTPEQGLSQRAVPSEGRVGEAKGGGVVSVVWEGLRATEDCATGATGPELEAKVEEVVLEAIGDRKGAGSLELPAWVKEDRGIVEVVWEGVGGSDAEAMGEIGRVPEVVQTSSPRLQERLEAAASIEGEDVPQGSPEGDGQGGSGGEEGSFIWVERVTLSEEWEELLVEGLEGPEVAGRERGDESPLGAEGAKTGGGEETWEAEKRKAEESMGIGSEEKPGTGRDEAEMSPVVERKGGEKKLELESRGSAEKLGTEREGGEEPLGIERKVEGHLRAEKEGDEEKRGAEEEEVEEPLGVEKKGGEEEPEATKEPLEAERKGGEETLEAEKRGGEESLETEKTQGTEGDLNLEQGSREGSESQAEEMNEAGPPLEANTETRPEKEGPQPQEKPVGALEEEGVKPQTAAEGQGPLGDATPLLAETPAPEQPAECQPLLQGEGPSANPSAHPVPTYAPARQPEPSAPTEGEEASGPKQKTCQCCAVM
# UniProt Q8WWM9: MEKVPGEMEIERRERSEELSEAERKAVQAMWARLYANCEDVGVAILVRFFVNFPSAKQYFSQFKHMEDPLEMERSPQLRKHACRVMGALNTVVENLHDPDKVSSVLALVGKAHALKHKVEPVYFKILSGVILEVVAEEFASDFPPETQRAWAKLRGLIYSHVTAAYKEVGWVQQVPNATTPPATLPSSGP
# UniProt Q7L1Q6: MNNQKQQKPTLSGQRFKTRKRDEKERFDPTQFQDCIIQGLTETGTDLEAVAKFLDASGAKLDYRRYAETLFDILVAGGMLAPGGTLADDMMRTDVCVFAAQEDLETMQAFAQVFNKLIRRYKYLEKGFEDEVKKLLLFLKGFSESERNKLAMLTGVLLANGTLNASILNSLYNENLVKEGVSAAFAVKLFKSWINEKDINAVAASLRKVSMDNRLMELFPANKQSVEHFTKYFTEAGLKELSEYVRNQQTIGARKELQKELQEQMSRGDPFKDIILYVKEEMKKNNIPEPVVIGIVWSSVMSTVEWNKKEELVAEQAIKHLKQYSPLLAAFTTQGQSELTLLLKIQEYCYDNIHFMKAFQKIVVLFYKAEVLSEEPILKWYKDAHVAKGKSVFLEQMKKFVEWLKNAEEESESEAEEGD
# UniProt Q96T51: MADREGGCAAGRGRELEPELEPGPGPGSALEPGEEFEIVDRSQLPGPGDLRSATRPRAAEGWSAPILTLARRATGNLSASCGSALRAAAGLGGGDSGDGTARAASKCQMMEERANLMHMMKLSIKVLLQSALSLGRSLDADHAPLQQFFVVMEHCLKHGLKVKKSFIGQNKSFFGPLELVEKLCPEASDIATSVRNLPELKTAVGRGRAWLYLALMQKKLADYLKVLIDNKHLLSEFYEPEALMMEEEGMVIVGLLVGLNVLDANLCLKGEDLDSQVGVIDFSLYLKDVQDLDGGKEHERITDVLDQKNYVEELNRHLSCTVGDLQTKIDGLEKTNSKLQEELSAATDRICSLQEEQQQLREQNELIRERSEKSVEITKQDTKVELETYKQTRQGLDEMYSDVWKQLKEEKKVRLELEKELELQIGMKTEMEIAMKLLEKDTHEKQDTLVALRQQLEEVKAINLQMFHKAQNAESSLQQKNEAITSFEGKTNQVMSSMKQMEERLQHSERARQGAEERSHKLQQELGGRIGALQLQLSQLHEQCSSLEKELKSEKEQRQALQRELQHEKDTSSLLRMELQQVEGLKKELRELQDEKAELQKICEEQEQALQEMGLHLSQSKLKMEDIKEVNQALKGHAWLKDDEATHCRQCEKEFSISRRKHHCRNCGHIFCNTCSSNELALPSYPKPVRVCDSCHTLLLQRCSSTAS
# UniProt A0MZ66, whole entry: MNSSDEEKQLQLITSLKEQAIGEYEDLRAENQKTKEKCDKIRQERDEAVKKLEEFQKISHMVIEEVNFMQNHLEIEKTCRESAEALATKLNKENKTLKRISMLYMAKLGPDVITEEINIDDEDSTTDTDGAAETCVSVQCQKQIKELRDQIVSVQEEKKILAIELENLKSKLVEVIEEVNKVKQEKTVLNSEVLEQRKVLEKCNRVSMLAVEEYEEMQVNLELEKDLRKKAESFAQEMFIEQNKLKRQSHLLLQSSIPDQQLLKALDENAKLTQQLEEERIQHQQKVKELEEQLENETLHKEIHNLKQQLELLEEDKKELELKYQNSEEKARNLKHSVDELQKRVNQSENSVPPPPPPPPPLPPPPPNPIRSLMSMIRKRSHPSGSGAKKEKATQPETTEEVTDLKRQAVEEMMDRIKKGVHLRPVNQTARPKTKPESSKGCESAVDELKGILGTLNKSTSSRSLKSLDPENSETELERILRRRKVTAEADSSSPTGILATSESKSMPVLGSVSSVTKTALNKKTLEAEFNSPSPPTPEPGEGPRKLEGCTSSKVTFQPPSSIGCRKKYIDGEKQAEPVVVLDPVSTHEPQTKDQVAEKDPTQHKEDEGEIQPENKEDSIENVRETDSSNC
# Many values rest on one well or one pass, so single values are uncertain.
# Compound: [O-][N+](C(C1=C(C(O)=C2)NC(C(C=C3)=CC=C3Cl)C4C1C=CC4)=C2Cl)=O
# Assay: melting temperature shift (compound 7 minus DMSO); higher = compound stabilises the protein
# Details: 10 µM
# Experimental: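 Thermal proteome profiling (TMT mass spectrometry) in intact DAOY medulloblastoma cells or DAOY lysates treated with 10 µM compound 7 or DMSO, heated at 10 temperatures from 40.5 to 73.8 °C for 3 min. Melting curves were fitted with the Bioconductor TPP package, and the melting point difference between compound and vehicle is reported per protein (single curve per condition).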
# [1] = system: DAOY cell lysate, treatment time: 20 min, 4 °C
# [2] = system: intact DAOY cells, treatment time: 90 min, 37 °C
Target,melting temperature shift [1],melting temperature shift [2]
EHD4 (UniProt Q9H223),-0.764 °C,-1.92 °C
LAMTOR1 (UniProt Q6IAA8),1.96 °C,0.583 °C
SRA1 (UniProt Q9HD15),2.05 °C,-0.625 °C
UniProt Q8N878,–,0.521 °C
UniProt Q6ZN17,-0.822 °C,–
IPO4 (UniProt Q8TEX9),-0.658 °C,-0.163 °C
STK39 (UniProt Q9UEW8),-2.17 °C,2.96 °C
LRCH3 (UniProt Q96II8),-1.15 °C,3.46 °C
AKR7A2 (UniProt O43488),-0.491 °C,-0.0233 °C
UniProt Q14117,–,0.534 °C
PEX1 (UniProt O43933),–,0.928 °C
ELP5 (UniProt Q8TE02),–,0.411 °C
ARL6IP5 (UniProt O75915),2.74 °C,-3.3 °C
P0CG08 (UniProt B7ZAQ6),-1.11 °C,-2.77 °C
SERF2 (UniProt P84101),-4.62 °C,–
PSMD11 (UniProt O00231),-0.424 °C,-0.795 °C
PUM3 (UniProt Q15397),0.522 °C,0.955 °C
RRAS2 (UniProt P62070),0.794 °C,-1.83 °C
UniProt Q8NHP1,–,-0.0443 °C
PSMC1 (UniProt P62191),-0.316 °C,-1.2 °C
UniProt Q14686,1.3 °C,–
ABL1 (UniProt P00519),-1.74 °C,–
PSME4 (UniProt Q14997),-1.08 °C,-0.43 °C
NAGLU (UniProt P54802),-2.79 °C,–

Target,melting temperature shift [1],melting temperature shift [2]
GPR107 (UniProt Q5VW38),1.3 °C,0.826 °C
DNAJC21 (UniProt Q5F1R6),0.141 °C,–
ARPP19 (UniProt P56211),-0.913 °C,–
UniProt Q5QNW6,–,0.352 °C
UniProt Q9Y2X8,1.05 °C,-0.00572 °C
GCDH (UniProt Q92947),0.116 °C,0.0859 °C
UniProt P24390,–,-1.19 °C
KIF11 (UniProt P52732),-0.632 °C,-0.383 °C
CTR9 (UniProt Q6PD62),-0.384 °C,0.759 °C
SMYD4 (UniProt Q8IYR2),-3.04 °C,-0.76 °C
UniProt Q9H853,–,-0.609 °C
LGALS3BP (UniProt Q08380),1.85 °C,0.662 °C
TEX30 (UniProt Q5JUR7),-1.2 °C,-3.23 °C
WAPL (UniProt Q7Z5K2),-0.289 °C,-0.642 °C
UniProt A2A2Y4,-2.11 °C,–
PTER (UniProt Q96BW5),–,0.751 °C
NARS2 (UniProt Q96I59),–,-2.48 °C
MED6 (UniProt O75586),-1.1 °C,0.629 °C
UniProt P49674,0.212 °C,–
C8ORF82 (UniProt Q6P1X6),-0.407 °C,-0.325 °C
ERI3 (UniProt O43414),–,0.843 °C
UniProt Q9NS25,1.92 °C,–
UniProt Q9NRD5,–,-0.647 °C
FAR1 (UniProt Q8WVX9),0.552 °C,0.0883 °C

# Looked up above.
# For melting temperature shift [2], TEX30 (UniProt Q5JUR7) shows -3.23 °C
# For melting temperature shift [1], GPR107 (UniProt Q5VW38) shows 1.3 °C
# For melting temperature shift [2], UniProt P24390 shows -1.19 °C
# For melting temperature shift [1], GCDH (UniProt Q92947) shows 0.116 °C
# For melting temperature shift [2], CTR9 (UniProt Q6PD62) shows 0.759 °C

# Continued:

Target,melting temperature shift [1],melting temperature shift [2]
UTP18 (UniProt Q9Y5J1),0.798 °C,–
PSMC4 (UniProt P43686),-0.42 °C,-1.24 °C
ARL14EP (UniProt Q8N8R7),-0.569 °C,–
TXN2 (UniProt Q99757),2.24 °C,0.737 °C
UniProt Q659C4,–,1.42 °C
UniProt P35716,–,-1.62 °C
PTBP2 (UniProt Q9UKA9),–,-0.791 °C
UniProt P18433,2.04 °C,–
OPA3 (UniProt Q9H6K4),1.38 °C,–
UniProt Q8NEY4,0.142 °C,–
TPP2 (UniProt P29144),-0.235 °C,-0.425 °C
ACTR2 (UniProt P61160),-0.599 °C,0.097 °C
UniProt A6NDB9,9.04 °C,–
ADNP (UniProt Q9H2P0),0.605 °C,0.141 °C
NT5C (UniProt Q8TCD5),-3.05 °C,-1.65 °C
UniProt Q8N0Y7,–,-1.99 °C
DARS (UniProt P14868),-0.942 °C,-0.373 °C
MTA1 (UniProt Q13330),0.456 °C,-0.214 °C
RARS2 (UniProt Q5T160),1.02 °C,-0.381 °C
UBE2I (UniProt P63279),-0.464 °C,-0.66 °C
UniProt Q8WWM9,-2.37 °C,–
CORO7 (UniProt P57737),-0.874 °C,0.771 °C
MUL1 (UniProt Q969V5),0.588 °C,0.513 °C
PSMD8 (UniProt P48556),-0.947 °C,-1.37 °C

Target,melting temperature shift [1],melting temperature shift [2]
BZW1 (UniProt Q7L1Q6),-0.705 °C,–
COPS2 (UniProt P61201),-0.558 °C,0.225 °C
ECHDC1 (UniProt Q9NTX5),0.387 °C,1.31 °C
UniProt Q9NYP3,-2.2 °C,–
TIGAR (UniProt Q9NQ88),-0.726 °C,0.835 °C
TMX3 (UniProt Q96JJ7),1.49 °C,-0.00202 °C
HM13 (UniProt Q8TCT9),2.03 °C,-3.83 °C
SAE1 (UniProt Q9UBE0),-0.213 °C,0.29 °C
UniProt Q9BSC4,0.291 °C,–
NF2 (UniProt P35240),0.517 °C,0.168 °C
ILVBL (UniProt A1L0T0),-0.68 °C,0.803 °C
TACO1 (UniProt Q9BSH4),4.32 °C,-0.78 °C
PSME2 (UniProt Q9UL46),-1.2 °C,-0.248 °C
UniProt Q5SRH9,–,-0.8 °C
MB21D2 (UniProt Q8IYB1),1.3 °C,1.21 °C
AIP (UniProt O00170),-0.592 °C,-0.165 °C
ECT2 (UniProt Q9H8V3),-0.922 °C,2.11 °C
UniProt Q93079,–,0.352 °C
EIF3C (UniProt Q99613),-0.046 °C,-0.14 °C
CUTA (UniProt O60888),0.24 °C,–
NSMCE3 (UniProt Q96MG7),0.282 °C,0.402 °C
METTL10 (UniProt Q5JPI9),-0.627 °C,–
MRPS23 (UniProt Q9Y3D9),-0.191 °C,-0.43 °C
COL5A1 (UniProt P20908),1.15 °C,0.171 °C

# Complete entries from above. Order of values: melting temperature shift [1] | melting temperature shift [2]
# EIF3C (UniProt Q99613) in the list: -0.046 °C | -0.14 °C
# UniProt Q9BSC4 in the list: 0.291 °C | –

# The results go on:

Target,melting temperature shift [1],melting temperature shift [2]
UniProt O60840,–,-0.278 °C
MRPL28 (UniProt Q13084),2.25 °C,-1.09 °C
RUFY1 (UniProt Q96T51),-0.272 °C,0.248 °C
CADM1 (UniProt Q9BY67),4.33 °C,–
UTP20 (UniProt O75691),-0.461 °C,0.548 °C
UniProt P09486,1.26 °C,–
PIGS (UniProt Q96S52),0.666 °C,0.55 °C
LSS (UniProt P48449),1.09 °C,-0.332 °C
UniProt P55199,0.404 °C,-4.36 °C
PCNA (UniProt P12004),-0.887 °C,0.0182 °C
TBL2 (UniProt Q9Y4P3),1.54 °C,0.0156 °C
NCOA7 (UniProt Q8NI08),-0.502 °C,-2.11 °C
UniProt Q5T011,-1.32 °C,–
UniProt Q9Y6T7,2.08 °C,-0.423 °C
SNRPA (UniProt P09012),-0.0318 °C,-0.194 °C
UniProt P06744,-0.39 °C,0.205 °C
CCT5 (UniProt P48643),-0.269 °C,-0.39 °C
UniProt P26022,0.774 °C,1 °C
TPMT (UniProt P51580),-0.575 °C,1.74 °C
SHTN1 (UniProt A0MZ66),-0.513 °C,-0.449 °C
FAM117B (UniProt Q6P1L5),–,3.42 °C
OSBPL3 (UniProt Q9H4L5),0.629 °C,1.07 °C
